Laboratory results: paper PMC7819943, “Rice protein-binding microarrays: a tool to detect cis-acting elements near promoter regions in rice”
The list shows a part of the results.

By UniProt entry, the sequences of proteins in these tests, tags left out.
UniProt Q0JBA9, entry or part of it: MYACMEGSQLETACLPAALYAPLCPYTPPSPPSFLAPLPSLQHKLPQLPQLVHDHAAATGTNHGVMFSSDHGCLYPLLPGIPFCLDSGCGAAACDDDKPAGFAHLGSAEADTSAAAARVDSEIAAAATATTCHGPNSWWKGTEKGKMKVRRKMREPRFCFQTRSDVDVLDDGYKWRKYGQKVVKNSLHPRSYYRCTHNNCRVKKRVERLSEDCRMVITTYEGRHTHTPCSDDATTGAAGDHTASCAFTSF

Target: OsWRKY34 (Oryza sativa, UniProt Q0JBA9 1-250)
Test: protein-binding microarray (RPBM); PBS, 2% BSA, 51.3 ng/ul salmon testes DNA, 50 uM zinc acetate, 200 nM TF, 25 C, 1 h; high values mean tight binding
Settings: protein: recombinant; tags: N-terminal polyhistidine and DsRed monomer fusion (pET32a); label: CyDye5-dUTP incorporated in the synthesized complementary strand; 3' TTTTT single-stranded linker to array surface; dsDNA, one strand shown
Procedure, shortened: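 The binding signal for each feature is its fluorescence intensity in arbitrary units. An Axon 4000B scanner was used to read a custom Agilent array that had been made double-stranded with Cy5-dUTP primer extension, blocked with 2% BSA, incubated at 25 °C for 1 h with 200 nM protein in PBS, 2% BSA, salmon testes DNA and 50 µM zinc acetate, and washed. The protein was an N-terminal polyhistidine–DsRed transcription factor fusion from E. coli BL21-CodonPlus, purified on Ni–NTA.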

Sequence | binding signal
GCGCGGCGGCGGTGGGGTGGTAGTGGTGGTGGGTGGAATGCGGAGTCACCTAGTGCAG | 13500 fluorescence intensity (a.u.)
TGGGGTTATTATAGTTGGGCAGCGCTGACCGTGAGTCCGTCGGAGTCACCTAGTGCAG | 10600 fluorescence intensity (a.u.)
CAGTTGGCCTGTTTGTTTGTTGGTTGTGATTAATCTGTGACGGAGTCACCTAGTGCAG | 18800 fluorescence intensity (a.u.)
AGTACTCTCTCTTTGTATTAAATGAATTCTGAAGGATTTTCGGAGTCACCTAGTGCAG | 8970 fluorescence intensity (a.u.)
CCGCCCATGTCCACCGCCCACCGCCGGGCCGCCGCCTCCCCGGAGTCACCTAGTGCAG | 8240 fluorescence intensity (a.u.)
GGTATTTTTCTTTTATTTTTTATATTACTAGAAAAATACCCGGAGTCACCTAGTGCAG | 11900 fluorescence intensity (a.u.)
CTTCAGCAGCGAAGCCGGTGACAGTCACGCTTTTATTTACCGGAGTCACCTAGTGCAG | 8620 fluorescence intensity (a.u.)
GTCCGCTCCCGTTCGTTTTTTGGCGGCCGAGGCCCAACCCCGGAGTCACCTAGTGCAG | 9000 fluorescence intensity (a.u.)
GCCTTAATCATGCACTTGTTGTCTACTCCAATCGTATAGTCGGAGTCACCTAGTGCAG | 9970 fluorescence intensity (a.u.)
GCTGCCGTGGAGATTCTTGAGGAGGTTGGTGGTGGGGATGCGGAGTCACCTAGTGCAG | 8150 fluorescence intensity (a.u.)
TCCTCTACTTAACACCAAAGCCTCGGTCTGTGTCTGTCCGCGGAGTCACCTAGTGCAG | 8460 fluorescence intensity (a.u.)
ACGTGTAGCACGCGCTGGACTTATCTGCTTTGCTCGTTTCCGGAGTCACCTAGTGCAG | 10600 fluorescence intensity (a.u.)
GTCTAACTGCCAACATCTTCATATGGCCCATCAATGCTTTCGGAGTCACCTAGTGCAG | 10700 fluorescence intensity (a.u.)
AGCCAACCACACACAATGAACCATACCACAGTTACCACAGCGGAGTCACCTAGTGCAG | 10100 fluorescence intensity (a.u.)
ACGCGATCTCTCGGCCCATCAAGCACTCCACCTCTCACCACGGAGTCACCTAGTGCAG | 8270 fluorescence intensity (a.u.)
CCCTACATCACTCACTTCTACCTACTTTCTTAATAACCGTCGGAGTCACCTAGTGCAG | 8690 fluorescence intensity (a.u.)
TCCTCGCCTCCGAGCTCGACTTGGTCATCGTCTTCGCCTCCGGAGTCACCTAGTGCAG | 9970 fluorescence intensity (a.u.)
TCTATATTTGTTCGATATAAGTATTAGTAATGTATTCTTGCGGAGTCACCTAGTGCAG | 8380 fluorescence intensity (a.u.)
TTTTTTATTAATAGTCAAAATTAAAAATGTTTGACTTAACCGGAGTCACCTAGTGCAG | 8270 fluorescence intensity (a.u.)
CACCCTATTCTCTCTCTAGCCGGCAGCCACCCAAAATTTCCGGAGTCACCTAGTGCAG | 10600 fluorescence intensity (a.u.)
ATTGTATTCCTACTTGGACTCTTATTTTCTTTTCTAATTTCGGAGTCACCTAGTGCAG | 10300 fluorescence intensity (a.u.)

Sequence | binding signal
ACTGGTTGCATGCTTCTTTCGTACGAAGTGGTGAGTGGTGCGGAGTCACCTAGTGCAG | 8670 fluorescence intensity (a.u.)
GCATATCTCTCGCCAACTACTGGCCCATGCTTGCATGCAACGGAGTCACCTAGTGCAG | 9840 fluorescence intensity (a.u.)
GCCTAATCGTTTTCTTCGCGTTCTTAGACTGTAATTAAGCCGGAGTCACCTAGTGCAG | 8180 fluorescence intensity (a.u.)
GCCTCCTGTCGTTCTATATATTCCCTTGGCCATCGTCTCTCGGAGTCACCTAGTGCAG | 14100 fluorescence intensity (a.u.)
AGTTTTTGTGTACAACGTTTGACTGTCCGTCTTATATGAACGGAGTCACCTAGTGCAG | 8810 fluorescence intensity (a.u.)
GCTTTGTCGGATGCCCACATTTTTCCCATTGATAATATTACGGAGTCACCTAGTGCAG | 8610 fluorescence intensity (a.u.)
TACCGACATGTTTCCGTCCGTATTGTTCCGTTTCCGGTTTCGGAGTCACCTAGTGCAG | 9170 fluorescence intensity (a.u.)
ACTCCTCTGCATGCTTTTTTTTTCCCTTCAGTTTCAGTTGCGGAGTCACCTAGTGCAG | 11200 fluorescence intensity (a.u.)
CTCCACACGTGTCCCCGCGCGAGCTCATCTCGCGCGCATTCGGAGTCACCTAGTGCAG | 8680 fluorescence intensity (a.u.)
TGGAGGTGGGGAGGATGCGGGAGAGGGAGGTGATGATGGGCGGAGTCACCTAGTGCAG | 8790 fluorescence intensity (a.u.)
ATTCCTTTTACTTTTCTTTATTTTTTTAAAATTTGCATGTCGGAGTCACCTAGTGCAG | 8560 fluorescence intensity (a.u.)
CATGCGTTCTTCCCCGCGCCTCTGCAGTTCCGCACATCGCCGGAGTCACCTAGTGCAG | 11800 fluorescence intensity (a.u.)
GGCTGCTATATTGACCTTGCTCTTATTCCTTCATTCAATTCGGAGTCACCTAGTGCAG | 10500 fluorescence intensity (a.u.)
GCTCGCCACTGCTGCCGCTTCTCCTCGTCCTGTACAAAACCGGAGTCACCTAGTGCAG | 10400 fluorescence intensity (a.u.)
TTAGTTGTTTGACTTTTTTTCATAGTTAAACCTTTTAAAGCGGAGTCACCTAGTGCAG | 15300 fluorescence intensity (a.u.)
TGACAAAATCCGGCGCGGGCTTGAGATTGATATTTTTTTCCGGAGTCACCTAGTGCAG | 8100 fluorescence intensity (a.u.)
TATATATATATATATATATATAGGCTTTTTAATTCCTCGCCGGAGTCACCTAGTGCAG | 8580 fluorescence intensity (a.u.)
GCCGTGTTCATGATATGGTGCTCGATATGGTCCGTTCATTCGGAGTCACCTAGTGCAG | 9100 fluorescence intensity (a.u.)
TAGTTTGATGCCTATCCAAAATTTGGTAGTGTTTTTCTAACGGAGTCACCTAGTGCAG | 8970 fluorescence intensity (a.u.)
CTTCCTGCCCGCAAACTAAATCCCACCGGCCACCGCCTCTCGGAGTCACCTAGTGCAG | 8830 fluorescence intensity (a.u.)
CTATTTCTTTTGTCCTTCATACAGAGGGTGTGTTTAGTTGCGGAGTCACCTAGTGCAG | 8770 fluorescence intensity (a.u.)

Sequence | binding signal
CGGTTTGGGCTCTTTTGGCTGTTCCATGGCGACGAGGCGCCGGAGTCACCTAGTGCAG | 8320 fluorescence intensity (a.u.)
CTTCGTTTTTTAATAGATGACGCCGTTGACTTTTTCTCACCGGAGTCACCTAGTGCAG | 22000 fluorescence intensity (a.u.)
GTTGCGGATGCGGAAGCAGCGCCACCTCGTTGACCTCACCCGGAGTCACCTAGTGCAG | 9210 fluorescence intensity (a.u.)
AGCAGGTATTTTTTTTCTTTCCTCCAATTTACCACGCCCTCGGAGTCACCTAGTGCAG | 8260 fluorescence intensity (a.u.)
CCACCGGCGACCGCCCTGCCCCGCCTGCAGCGGAATCCATCGGAGTCACCTAGTGCAG | 8400 fluorescence intensity (a.u.)
TGTGCATAAGACCCATAGGCAGGCGACACCGCGGCAGCCGCGGAGTCACCTAGTGCAG | 10400 fluorescence intensity (a.u.)
ACCACCACCACTGCCACTCTATTCACTTCACTTCCACCGCCGGAGTCACCTAGTGCAG | 9460 fluorescence intensity (a.u.)
GGGAGGATGGCACGTGGGTTTCGCTATTATCTTTTTTTGCCGGAGTCACCTAGTGCAG | 8980 fluorescence intensity (a.u.)
CGAGTATTTACTGCTGCTACTCCTATTCCTACTCCTACTCCGGAGTCACCTAGTGCAG | 10400 fluorescence intensity (a.u.)
GATTTGTTTGTCATCACGGCCACCATTTCACTGTCAGATCCGGAGTCACCTAGTGCAG | 9000 fluorescence intensity (a.u.)
TGCTTTCATCTCATGCATCACTTCTATCGGTGGCGATCGACGGAGTCACCTAGTGCAG | 8430 fluorescence intensity (a.u.)
TGAATCTATACACTCTTCTATTCAGATTCGTTGTACTATGCGGAGTCACCTAGTGCAG | 8040 fluorescence intensity (a.u.)
CCGTGCCGCCCGACCCGTCCGCGTTCTTCGTCAACGTCGGCGGAGTCACCTAGTGCAG | 9810 fluorescence intensity (a.u.)
CTCAGCACACCTCACCCACGCGAGCGAGACGCTGCGCCTACGGAGTCACCTAGTGCAG | 8040 fluorescence intensity (a.u.)
TCCTCTCTGTCTTCTGTCTTCTCTTCTTCTTCCTCACCAACGGAGTCACCTAGTGCAG | 11600 fluorescence intensity (a.u.)
GCTTTCTCGTTTTACGTGCTATGCAAATATTCTTCTCTCTCGGAGTCACCTAGTGCAG | 9720 fluorescence intensity (a.u.)
TTTTTTCCTTCTCGAATGGCCTCGCGCGCGCGCGCGCGCGCGGAGTCACCTAGTGCAG | 9050 fluorescence intensity (a.u.)
ATTTTGGTTGGCCAACTTTAGCTAACGCATAGAGGACTTTCGGAGTCACCTAGTGCAG | 8620 fluorescence intensity (a.u.)
GACCCACTCCCTTTCTTTCTCTAACCTCTCTCCTCGCTTCCGGAGTCACCTAGTGCAG | 13300 fluorescence intensity (a.u.)
ACCGATGAGATGGTTGGGAGCCGATTAAGGTTATTGTTTTCGGAGTCACCTAGTGCAG | 8250 fluorescence intensity (a.u.)
ACCGATTAACCCTTAGTTCTGCCACCTCACTTCATATTACCGGAGTCACCTAGTGCAG | 8420 fluorescence intensity (a.u.)

Sequence | binding signal
TTGTTATTGATCTCGCTCTTACCGATCAACCGATGGGTCCCGGAGTCACCTAGTGCAG | 9160 fluorescence intensity (a.u.)
CTCCAGGGTTGTAATCTTGTAATTTTTTCCTGCTCTATCACGGAGTCACCTAGTGCAG | 9210 fluorescence intensity (a.u.)
TATTTTGGGGTGGAGGGAGTATAATAATTAAGTAAACATTCGGAGTCACCTAGTGCAG | 11600 fluorescence intensity (a.u.)
ACACAACTATTCATCACTTTATCTACTCCCGATATAATTACGGAGTCACCTAGTGCAG | 10400 fluorescence intensity (a.u.)
GAGCCTCCACCGACTCCAACACCAACACACCCTCGGGCCACGGAGTCACCTAGTGCAG | 10800 fluorescence intensity (a.u.)
TCTCCATCTCCGCCGGCGACCGTACTTAACCCGATCGGCCCGGAGTCACCTAGTGCAG | 8120 fluorescence intensity (a.u.)
CCTACTCTTCCAGCTTTTAAAATATGGTGTCGTTCACTTTCGGAGTCACCTAGTGCAG | 8870 fluorescence intensity (a.u.)
GCTCCCGTGATGGTAGTGGCTATACTTGGTCTTTCATATTCGGAGTCACCTAGTGCAG | 9510 fluorescence intensity (a.u.)
GTTCATGGCTCTGGTCTCTTGGTCCACTGGTGCCACTGCTCGGAGTCACCTAGTGCAG | 9100 fluorescence intensity (a.u.)
GATTCGTTTTACAAGTTGCAGTTCTTTACCGGCATCGCTTCGGAGTCACCTAGTGCAG | 9770 fluorescence intensity (a.u.)
CATCTTCTTTCTCTCTCTACTGTCCTAGCAATTCTCTCTCCGGAGTCACCTAGTGCAG | 8620 fluorescence intensity (a.u.)
AGAGTTACGTTCTAACAAATCGTCCACTGTTTTTCATCTCCGGAGTCACCTAGTGCAG | 8090 fluorescence intensity (a.u.)
TATACTTCCTCAGTTTTTTAATGTATAACACTGTTGACTTCGGAGTCACCTAGTGCAG | 9140 fluorescence intensity (a.u.)
GGAGATGTTCCATCCTTGACCGCCTGCAAGTCTGTCCCACCGGAGTCACCTAGTGCAG | 10400 fluorescence intensity (a.u.)
GCCGCCGCCACCACCACCGTGCCCGAGCTCGCCGACCACCCGGAGTCACCTAGTGCAG | 8300 fluorescence intensity (a.u.)
GCCCCTTTTTTTGTTTCATTCTCTGTGAAGCGTAAAATTTCGGAGTCACCTAGTGCAG | 8490 fluorescence intensity (a.u.)
GTTCTCCGCCAACGCTTCATGAAGGCGTACTTTGACTTTACGGAGTCACCTAGTGCAG | 10500 fluorescence intensity (a.u.)
GGGTCTCACGATTCCCCGCTATTGAGGATCTTCCCTCGACCGGAGTCACCTAGTGCAG | 8900 fluorescence intensity (a.u.)
GGTTGGTTTCTTTGTTTTTCTCTTATATTTACACTATATTCGGAGTCACCTAGTGCAG | 23800 fluorescence intensity (a.u.)
TCTCTCTCTCACCTGTTATTAGTCTTGGCTAGCTTTCTTCCGGAGTCACCTAGTGCAG | 11300 fluorescence intensity (a.u.)
GATCACACACAGCCAGCTGCATTTTTGAATTGAACGGGTACGGAGTCACCTAGTGCAG | 8700 fluorescence intensity (a.u.)
